These are yes or no findings as the source states them, for the method shown. Some binding calls cover weakened binding; strength is not graded here.
Assays:
[1] = target: recombinant human D-dopachrome tautomerase (human) (UniProt P30046); assay: ELISA; 'a similar ELISA set up' to the ACKR3 ELISA, for CXCR4; details in Supplemental data file 1 Fig. 5; only the target purified
[2] = target: recombinant human D-dopachrome tautomerase (human) (UniProt P30046); assay: ELISA; plates coated with rhDDT (1 µM, 100 nM, 10 nM) or rhMIF (1 uM) in 0.1M NaHCO3 pH 8.6 overnight at 4 °C, blocked with 2% BSA; HeLa cell lysate added at 4°C for 20 min; detected with an antibody against ACKR3; only the target purified
[3] = target: T1, recombinant human macrophage migration inhibitory factor (human) (UniProt P14174); assay: as above
T1 sequence: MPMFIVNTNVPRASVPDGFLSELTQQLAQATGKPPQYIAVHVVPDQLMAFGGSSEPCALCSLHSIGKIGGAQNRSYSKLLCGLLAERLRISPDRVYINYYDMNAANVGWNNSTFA

The chains behind the UniProt entries cited, without tags or fusion partners.
UniProt P30046: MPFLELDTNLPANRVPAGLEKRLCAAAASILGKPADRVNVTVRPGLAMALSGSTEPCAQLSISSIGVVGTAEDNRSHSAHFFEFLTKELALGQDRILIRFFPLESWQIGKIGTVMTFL
UniProt P61073: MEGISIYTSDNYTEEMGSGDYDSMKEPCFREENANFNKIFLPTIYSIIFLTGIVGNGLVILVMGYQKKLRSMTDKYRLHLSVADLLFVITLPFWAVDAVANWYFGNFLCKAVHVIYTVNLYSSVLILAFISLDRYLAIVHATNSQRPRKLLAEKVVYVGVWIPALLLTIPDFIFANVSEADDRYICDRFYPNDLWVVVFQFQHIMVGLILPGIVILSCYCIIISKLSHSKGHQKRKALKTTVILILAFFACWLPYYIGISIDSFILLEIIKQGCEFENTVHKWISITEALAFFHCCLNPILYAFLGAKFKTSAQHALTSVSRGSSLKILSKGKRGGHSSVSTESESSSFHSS
UniProt P25106: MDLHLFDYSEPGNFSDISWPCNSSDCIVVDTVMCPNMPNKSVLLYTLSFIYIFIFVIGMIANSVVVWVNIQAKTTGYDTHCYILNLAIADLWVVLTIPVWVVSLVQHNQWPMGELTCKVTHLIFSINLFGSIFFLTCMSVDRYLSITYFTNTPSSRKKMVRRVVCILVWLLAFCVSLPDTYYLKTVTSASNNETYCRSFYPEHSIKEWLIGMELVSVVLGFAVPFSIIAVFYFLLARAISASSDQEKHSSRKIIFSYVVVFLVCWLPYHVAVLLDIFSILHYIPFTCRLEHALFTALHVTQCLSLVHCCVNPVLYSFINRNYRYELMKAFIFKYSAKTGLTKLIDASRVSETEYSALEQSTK

Row | Substance | binding [1] | binding [2] | binding [3]
1 | C-X-C chemokine receptor 4 (from UniProt P61073 1-352) | no binding | – | –
2 | atypical chemokine receptor 3 (HeLa cell lysate) (from UniProt P25106 1-362) | – | binds | binds

From PMC8185224
